Test results from patent publication US11045456B2, “Compositions and methods for treating COPD and other inflammatory conditions” (Georgia State University Research Foundation, Inc., priority 2015, dated 2021).
At least one structure is not confirmed: it was looked up by name or label, or the drawing left a doubt.

Tested on: PDE4B2
Assay: PDE4B2 expression (RT-PCR) in BEAS-2B cells
Assay type: cell-based, human
Conditions: cAMP elevator / PKA or Epac activator with NTHi
Experimental: Bacterial strains and culture condition. Clinical isolates of NTHi strain 12 were used in this study (Ishinaga et al., EMBO J., 26(4):1150-1162, 2007). Bacteria were grown on chocolate agar plates at 37° C. in an atmosphere of 5% CO2 overnight and subsequently inoculated in brain heart infusion (BHI) broth supplemented with 3.5 μg/mL NAD and hemoglobin (BD Biosciences). After overnight incubation, the bacteria were subcultured into fresh broth and the log phase bacteria, monitored by measurement of optical density (OD) value, were washed and suspended in DMEM for in vitro cell experiments and in isotonic saline for in vivo animal experiments. For all in vitro experiments except the dose dependent experiment, NTHi was treated at multiplicity of infection (MOI) of 50.
Cell culture. All media described below were supplemented with 10% fetal bovine serum (Sigma-Aldrich). Human bronchial epithelial BEAS-2B cells were maintained in RPMI medium (Life Technologies) (ATCC® CRL-9609™). Human primary bronchial epithelial NHBE (Lonza) cells were maintained in bronchial epithelial growth media (BEGM) supplemented with BEGM SingleQuots (Jono et al., J. Biol. Chem. 277(47):45547-45557, 2002). BEAS-2B cells stably expressing human PDE4B2 (PDE4B2-stable cells) were obtained by plasmid transfection following Geneticin selection (300 μg/mL). […]

## C=C[C@@]1(C)CC(=O)[C@]2(O)[C@@]3(C)[C@@H](O)CCC(C)(C)[C@@H]3[C@H](O)[C@H](OC(C)=O)[C@@]2(C)O1 [Forskolin]
  NTHi-induced PDE4B2 expression (synergy with NTHi): synergized with NTHi to up-regulate PDE4B2 expression
